# Assay results published in PubChem BioAssay AID602296 (Broad Institute, 2012).
# Among all 2,000 compounds or so, about 190 (9.5%) were called active. Not shown: some 14% with an inconclusive outcome.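 How the source made its calls: active means fitted activation curve crossing 40% at a concentration no higher than the sample's top valid tested dose; inconclusive means flat fitted curve at 30% to 70% activation, or poor curve fit; inactive means signal decrease, flat curve within 30%, or the rest.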 This part holds few or none of the hits.
# Assay: sustained heat shock response element induction – cell-based, mouse, luciferase, cherry-pick, dose, confirmation (AID 602296);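 further: test compounds applied by themselves with no MG132 co-treatment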
# Conditions: NIH3T3-HGL HSF-1 response element luciferase, 48 h; at 26 µM (top of the series) unless noted
row,SMILES,activation
1,CC(Sc1nc(-c2ccccc2)cc(C(F)(F)F)n1)C(=O)Nc1sc2c(c1C#N)CCC2 (stereo unspecified),inactive: 5.97%
2,COCCNC(=O)C(c1ccc(C)cc1)N(C(=O)CCC(=O)Nc1ccccn1)c1ccccc1C (stereo unspecified),inactive: 0.343%
3,O=C(Nc1c(C(=O)c2ccccc2)oc2ccccc12)c1cc(-c2ccccc2O)n[nH]1,inactive: -12.7%
4,COc1ccc2nc3cc(Cl)ccc3c(Nc3cc(C(C)C)c(O)cc3C)c2c1,inactive: -100%
5,C/C(CCc1oc2c(Br)cc(Br)cc2c1-c1ccc(C)o1)=N\O,inactive: -56.5%
6,Cc1ccc(S(=O)(=O)NC(=O)Nc2ccc(C)cn2)cc1,inactive: 4.37%
7,CCCCNC(=S)N(Cc1ccco1)Cc1cc2cc3c(cc2[nH]c1=O)OCCO3,inactive: -47%
8,CCOC(=O)N1CCN(S(=O)(=O)c2cc(Cl)c(OC)cc2Cl)CC1,inactive: -9.9%
9,Cc1oc(-c2ccoc2)nc1CN(CC1CCC(=O)N1)C(C)C (stereo unspecified),inactive: 0.391%
10,O=C(N/N=C1\CC(c2ccccc2)Oc2ccccc21)c1ccc(O)cc1 (stereo unspecified),inactive: -3.47%
11,CC(C)CC(=O)Nc1ccc(N2CCOCC2)cc1,inactive: 3.39%
12,COc1cccc(N2CCN(S(=O)(=O)c3ccc(-c4coc(C)n4)cc3)CC2)c1,inactive: -29.8%
13,Cc1[nH]c2ccccc2c1CN1CCN(c2ccccn2)CC1,inactive: -15.3%
14,Cc1ccc(C(c2c(C)nn(-c3ccccc3)c2N)c2c(C)nn(-c3ccccc3)c2N)cc1,inactive: -5.45%
15,N=c1c2c(-c3ccccc3)c(-c3ccccc3)n(Cc3ccco3)c2ncn1CCCN1CCOCC1,inactive: -0.688%
16,Cc1ccc(S(=O)(=O)c2c(C)cc(C)nc2N2CCCCC2)cc1,inactive: -41.7%
17,O=C(O)c1ccc(N(Cc2ccccc2)S(=O)(=O)c2ccccc2)cc1,inactive: -0.93%
18,COc1ccc2nc(Sc3c([N+](=O)[O-])nc(C)n3Cc3ccccc3)[nH]c2c1,inactive: -23.5% [at 12 µM]
19,Fc1ccc(CN2CCN(c3ncnc4scc(-c5ccccc5)c34)CC2)cc1,inactive: -66.5%
20,COc1ccc(NC(=O)C(NCC(C)C)c2ccccc2)cc1Cl (stereo unspecified),inactive: -0.667%
21,C=C(C)Cn1c(SCC(=O)O)nnc1-c1ccc(OC)cc1,inactive: -2.32%
22,COc1ccc(NC(=O)COc2ccccc2Cc2ccccc2)cc1S(N)(=O)=O,inactive: -11.6%

# Grouped by structure, the compounds so far with four or more nitrogen atoms (7)
row,SMILES,activation
1,CC(Sc1nc(-c2ccccc2)cc(C(F)(F)F)n1)C(=O)Nc1sc2c(c1C#N)CCC2 (stereo unspecified),inactive: 5.97%
2,COCCNC(=O)C(c1ccc(C)cc1)N(C(=O)CCC(=O)Nc1ccccn1)c1ccccc1C (stereo unspecified),inactive: 0.343%
13,Cc1[nH]c2ccccc2c1CN1CCN(c2ccccn2)CC1,inactive: -15.3%
14,Cc1ccc(C(c2c(C)nn(-c3ccccc3)c2N)c2c(C)nn(-c3ccccc3)c2N)cc1,inactive: -5.45%
15,N=c1c2c(-c3ccccc3)c(-c3ccccc3)n(Cc3ccco3)c2ncn1CCCN1CCOCC1,inactive: -0.688%
18,COc1ccc2nc(Sc3c([N+](=O)[O-])nc(C)n3Cc3ccccc3)[nH]c2c1,inactive: -23.5% [at 12 µM]
19,Fc1ccc(CN2CCN(c3ncnc4scc(-c5ccccc5)c34)CC2)cc1,inactive: -66.5%

# The list continues.

row,SMILES,activation
1,Cc1cccc(CC(C)NC(=O)c2oc3c(F)cccc3c2C)n1 (stereo unspecified),inactive: -2.82%
2,COc1ccccc1OCc1nnc(SCCN2CCOCC2)o1,inactive: 18.5%
3,Cc1cc2c3c(c1)C1(C(=O)N3C(C)(C)CC2C)C(C#N)=C(N)Oc2cc(O)ccc21 (stereo unspecified),inactive: -29.6%
4,CC(=O)NCCc1nc2ccccc2n1CCOc1cccc(C)c1,inactive: 5.11%
5,CCOC(=O)c1cc(NC(=O)COc2ccc([N+](=O)[O-])cc2)cc(C(=O)OCC)c1,inactive: -1.74%
6,Cc1ccc(C)c(S(=O)(=O)N2CCN(CC(=O)Nc3cc(C)on3)CC2)c1,inactive: -6.94%
7,Cc1oc(-c2ccccc2F)nc1CS(=O)(=O)CC(=O)NCCCN1CCN(C)CC1,inactive: -16.7%
8,Cn1nnnc1SCCNC/C=C/c1ccccc1,inactive: -10.7%
9,Cc1ccc2nnn(Cc3cccc(C(C)(C)C)c3O)c2c1,inactive: -46%
10,Cc1ccc(N(CC(=O)NCCc2ccc(F)cc2)S(=O)(=O)c2ccc(Cl)c([N+](=O)[O-])c2)c(C)c1,inactive: -108%
11,Cc1cccc(NC(=S)N(CCN(C)C)C(C)c2cccnc2)c1 (stereo unspecified),inactive: -1.67%
12,CN(Cc1ccccc1)c1nc(N)c([N+](=O)[O-])c(NCc2ccccc2)n1,inactive: -74.1%
13,CCOC(=O)C1=CN(Cc2ccc(OC)cc2)C=C(C(=O)OCC)C1c1cccs1,inactive: -33.1%
14,CC(C)C(C(=O)NCc1ccccc1)N(CC1CCCO1)C(=O)CNS(=O)(=O)c1ccccc1 (stereo unspecified),inactive: 12.3%
15,CCOC(=O)c1ccc(N=c2sc(C(=O)OC)cc(=O)n2-c2ccc(C(=O)OCC)cc2)cc1,inactive: -88.9%
16,CCOC(=O)c1ccc(N2C(=O)CC(N3CCC(Nc4ccc(F)cc4)CC3)C2=O)cc1 (stereo unspecified),inactive: -17%
17,CCCCNc1cc(NC(C)=O)cc2cc(OC)c(OC)cc12,inactive: -32.6%
18,OC(CNCc1ccc(F)cc1)(c1ccc(F)cc1)c1ccc(F)cc1,inactive: -38.3%
19,COP(=O)(OC)c1nc(-c2cccc3ccccc23)oc1NCc1ccccc1,inactive: -62.3%
20,CCOC(=O)c1c(S(=O)(=O)NCC2CCN(CCc3cccs3)CC2)c(C)n(C)c1C,inactive: 5.71%
21,Cc1ccc(S(=O)(=O)N(C)C)cc1NC(=S)NC(C)CCCC(C)C (stereo unspecified),inactive: -50.3%
22,O=C1C2=C(NC(=S)NC2c2ccc(Cl)cc2)NC(c2ccc(Cl)cc2)N1c1ccc(Cl)cc1 (stereo unspecified),inactive: -101%

row,SMILES,activation
1,Cc1[nH]nc(-c2ccc(O)c(C)c2O)c1-c1cnn(-c2ccccc2)c1,inactive: -13.3%
2,O=C(CSc1nnc2c(Cl)cc(C(F)(F)F)cn12)N(Cc1ccccc1)Cc1ccccc1,inactive: 5.92%
3,C/C=C1\COC(C(=O)NCc2ccccc2)(C(F)(F)F)C=C1C=C(C)C (stereo unspecified),inactive: -18.1%
4,CCOC(=O)Cn1nnnc1C(C(C)C)N(Cc1cc2c(C)cc(C)cc2[nH]c1=O)C1CCCC1 (stereo unspecified),inactive: -57.6%
5,Cc1ccc(NNC(=O)c2ccno2)c(C)c1,inactive: -50.5%
6,CCOc1cc(/C=N/NC(=O)Cn2nc([N+](=O)[O-])cc2C)cc(Br)c1OCc1ccccc1C,inactive: -45.6%
7,CCC(C)NC(=O)c1nc2c(nnn2Cc2ccccc2Cl)c(=O)[nH]1 (stereo unspecified),inactive: -8.83%
8,O=c1c2ccccc2sc2nc(C3CCCCC3)n(Cc3ccco3)c(=O)c12,inactive: 10.6%
9,CC1(C)CC(=O)C2=C(C1)N1C(=C(C#N)C2c2ccc(Cl)cc2)N=C(N)c2ccccc21 (stereo unspecified),inactive: -53.2% [at 12 µM]
10,Cc1cc2oc(=O)cc(CSc3nc(N)cc(N)n3)c2cc1C,inactive: -1.89%
11,O=C(NC(=S)N1CCN(C/C=C/c2ccccc2)CC1)c1ccc(Cl)nc1,inactive: -13.3%
12,N#Cc1c(-c2ccccc2)c(-c2ccccc2)n(Cc2ccco2)c1NC(=O)c1cccs1,inactive: -41.2%
13,CCn1c(=O)c([N+](=O)[O-])c(Cl)c2ccccc21,inactive: -99%
14,COc1ccc(/C=C/C(O)=C2/C(=O)N(C)C3(C)CC2c2ccccc2O3)cc1 (stereo unspecified),inactive: -4.64%
15,Cc1ccc(C)c(S(=O)(=O)N2CCCCC2CCNC(=O)C(=O)NCCc2ccco2)c1 (stereo unspecified),inactive: -22.8%
16,COc1ccc(/C=N/NC(=O)c2cccnc2)c(C(=O)O)c1OC,inactive: 11.1%
17,COc1cc(C(=O)Sc2ccc(Cl)cc2)cc(OC)c1OC,inactive: -94.6%
18,Cc1cccc(N=Nc2ccc(O)c3ncccc23)c1,inactive: 11.9%
19,CN(C)c1ccc(CNC(=O)c2ccc(CNc3c(N4CCCCC4)c(=O)c3=O)cc2)cc1,inactive: 6.89%
20,COc1ccc(C)cc1-n1c(SCC(=O)Nc2cccc(C(=O)O)c2)nc2ccccc2c1=O,inactive: 5.74%
21,CN(C)c1nc(N)nc(CSc2nnnn2-c2cccc3ccccc23)n1,inactive: -21.8%
22,Cc1ccccc1Nc1nnc(C)c(=O)[nH]1,inactive: -0.615%

row,SMILES,activation
1,COCCn1c(=O)[nH]c2cc(C(=O)N3CCN(c4cccc(Cl)c4)CC3)ccc2c1=O,inactive: -3.14%
2,O=S(=O)(NCc1ccccn1)c1ccc2ccccc2c1,inactive: 15.4%
3,COC(=O)C1CCN(C(=O)Cc2c(OC)ccc3cc(Br)ccc23)CC1,inactive: -0.233%
4,CCN(CC(=O)Nc1cccc(OC)c1)CC(=O)Nc1ccc(Br)c(C)c1,inactive: -67.4%
5,CCOC(=O)Nc1ccc2c(c1)N(C(=O)CN(CC)CC)c1ccccc1C=C2,inactive: 0.048%
6,CCOC(=O)c1c(NC(C)=O)sc2c(O)c(CN3CCN(CC)CC3)ccc12,inactive: -10.9%
7,O=C(CNC(=O)C1CCCCC1)OCC(=O)c1ccc(Br)cc1,inactive: 7%
8,Cc1ccc(OCc2ccc(C#N)cc2)c(C(=O)c2cc(C#N)c(=O)n(C3CC3)c2)c1,inactive: -2.47%
9,N#CCC(CNc1ncc(C(F)(F)F)cc1Cl)OC(=O)c1ccc(Cl)cc1Cl (stereo unspecified),inactive: 7.88%
10,CN(Cc1cccc2cnccc12)C(=O)c1cc(COc2ccc(F)cc2F)on1,inactive: -16.1%
11,COC(=O)C(NNc1ccccc1C)(NC(=O)c1ccc(F)cc1)C(F)(F)F (stereo unspecified),inactive: 18.4%
12,CCOC(=O)COc1ccc2ccccc2c1/C=C/[N+](=O)[O-],inactive: -112%
13,C=CCN1C(=O)NC(c2ccccc2)(C(F)(F)F)S/C1=C(\C#N)c1nnc(N2CCOCC2)n1-c1ccccc1 (stereo unspecified),inactive: -40%
14,CCc1cc(C(=O)c2ccc(OC)cc2)c(N)s1,inactive: 0.691%
15,CCNC(=S)N1CCN(S(=O)(=O)c2cccc(C(F)(F)F)c2)CC1,inactive: 6.4%
16,Cc1ccc([N+](=O)[O-])cc1N=Nc1c(-c2ccc([N+](=O)[O-])cc2)[nH]n(C(N)=S)c1=O,inactive: -67%
17,Cc1cccc(C)c1OCC(=O)NCc1nnc(SCC(=O)NC2CCCCC2C)n1C (stereo unspecified),inactive: -6.61%
18,COc1ccc(N/C=C(\C=C\C#N)S(=O)(=O)c2ccccc2)cc1,inactive: 2.06%
19,COCc1cc(CN2CCN(CCc3ccccc3)C(CCO)C2)ccc1OC (stereo unspecified),inactive: -12.6%
20,O=C(CSc1nnc(-c2ccncc2)n1Cc1ccco1)N1c2ccccc2Sc2ccc(Cl)cc21,inactive: -3.27%
